# Where “and” joins values, the source holds several entries; their conditions need not be identical. Equal entries are not always repeated. This is one part of the list. For some assays here: The source does not settle which construct or isoform was used.
# Columns and labels:
# Experiment in all cases: protein microarray (ProtoArray v5.0), streptavidin-Alexa Fluor 647
# Conditions in all cases: 3'-biotin; 20 mM Tris (pH 7.5), 5 mM MgCl2, 100 mM KCl, 0.1% Tween-20, A/T-rich and random oligonucleotide blockers; temperature not stated; high values mean tight binding
# UCHL3 (human) = tested on: UCHL3 (human)
# UCHL5 (human) = tested on: UCHL5 (human)
# UCK1 = molecular target: T1, UCK1 (UniProt Q9HA47)
# T1 sequence: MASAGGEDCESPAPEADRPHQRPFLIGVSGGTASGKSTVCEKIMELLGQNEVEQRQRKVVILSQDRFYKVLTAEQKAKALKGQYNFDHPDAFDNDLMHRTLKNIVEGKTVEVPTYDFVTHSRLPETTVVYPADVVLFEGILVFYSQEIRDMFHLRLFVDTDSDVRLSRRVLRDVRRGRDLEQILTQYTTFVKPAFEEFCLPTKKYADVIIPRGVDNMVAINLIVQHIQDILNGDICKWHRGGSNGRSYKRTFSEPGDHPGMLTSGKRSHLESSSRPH
# UCK2 (human) = tested on: UCK2 (human)
# UEVLD (human) = tested on: UEVLD (human)
# UGP2 (human) = tested on: UGP2 (human)
# UGT1A10 (human) = tested on: UGT1A10 (human)
# ULK4 (human) = tested on: ULK4 (human)
# UMPS (human) = tested on: UMPS (human)
# [1] = tested on: UPF0417 protein FAM163A (human)
# [2] = tested on: UPF0484 protein FAM167A (human)
# [3] = molecular target: UPF0544 protein C5orf45 [Source:UniProtKB/Swiss-Prot + Acc:Q6NTE8] (human)
# [4] = tested on: UPF0545 protein C22orf39 (human)
# [5] = tested on: UPF0546 membrane protein C1orf91 (human)
# [6] = tested on: UPF0627 protein ENSP00000358171 (human)
# UPK3A (human) = tested on: UPK3A (human)
# UPK3B (human) = tested on: UPK3B (human)
# UPP1 (human) = tested on: UPP1 (human)
# UPP2 (human) = tested on: UPP2 (human)
# UROS (human) = tested on: UROS (human)
sequence,measurement,setting,value
GGGAGGCTGAGGCAGG [G4-1 biotinylated (PQS2)],binding signal,UCHL3 (human),-0.353 z-score
same,binding signal,UCHL5 (human),-0.36 z-score and -0.347 z-score
same,binding signal,UCK1,-0.309 z-score
same,binding signal,UCK2 (human),-0.328 z-score
same,binding signal,UEVLD (human),-0.303 z-score
same,binding signal,UGP2 (human),-0.349 z-score and -0.325 z-score
same,binding signal,UGT1A10 (human),-0.28 z-score
same,binding signal,ULK4 (human),-0.336 z-score
same,binding signal,UMPS (human),-0.335 z-score
same,binding signal,[1],-0.349 z-score
same,binding signal,[2],-0.258 z-score
same,binding signal,[3],-0.296 z-score
same,binding signal,[4],-0.318 z-score
same,binding signal,[5],-0.348 z-score
same,binding signal,[6],-0.335 z-score
same,binding signal,UPK3A (human),-0.323 z-score
same,binding signal,UPK3B (human),-0.323 z-score
same,binding signal,UPP1 (human),-0.25 z-score
same,binding signal,UPP2 (human),-0.35 z-score
same,binding signal,UROS (human),-0.327 z-score

# Quoted at random: 2 entries already listed
sequence,measurement,setting,value
GGGAGGCTGAGGCAGG [G4-1 biotinylated (PQS2)],binding signal,UPK3A (human),-0.323 z-score
same,binding signal,UPP2 (human),-0.35 z-score
